Drawing on publication PMC6177257, this text covers binding for three molecules.

By UniProt entry, the sequences of proteins in these tests, tags left out.
UniProt P83949: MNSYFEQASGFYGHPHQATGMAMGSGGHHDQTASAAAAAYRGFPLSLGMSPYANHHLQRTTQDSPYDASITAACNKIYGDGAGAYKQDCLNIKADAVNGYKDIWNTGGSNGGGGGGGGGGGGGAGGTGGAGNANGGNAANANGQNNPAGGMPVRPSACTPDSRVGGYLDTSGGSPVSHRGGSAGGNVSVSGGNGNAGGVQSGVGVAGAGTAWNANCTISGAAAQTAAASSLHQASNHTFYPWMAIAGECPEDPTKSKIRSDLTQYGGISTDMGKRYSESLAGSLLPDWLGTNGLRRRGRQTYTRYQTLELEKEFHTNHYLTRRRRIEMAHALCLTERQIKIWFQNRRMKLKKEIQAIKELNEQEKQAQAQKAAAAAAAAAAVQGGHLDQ
UniProt P29555: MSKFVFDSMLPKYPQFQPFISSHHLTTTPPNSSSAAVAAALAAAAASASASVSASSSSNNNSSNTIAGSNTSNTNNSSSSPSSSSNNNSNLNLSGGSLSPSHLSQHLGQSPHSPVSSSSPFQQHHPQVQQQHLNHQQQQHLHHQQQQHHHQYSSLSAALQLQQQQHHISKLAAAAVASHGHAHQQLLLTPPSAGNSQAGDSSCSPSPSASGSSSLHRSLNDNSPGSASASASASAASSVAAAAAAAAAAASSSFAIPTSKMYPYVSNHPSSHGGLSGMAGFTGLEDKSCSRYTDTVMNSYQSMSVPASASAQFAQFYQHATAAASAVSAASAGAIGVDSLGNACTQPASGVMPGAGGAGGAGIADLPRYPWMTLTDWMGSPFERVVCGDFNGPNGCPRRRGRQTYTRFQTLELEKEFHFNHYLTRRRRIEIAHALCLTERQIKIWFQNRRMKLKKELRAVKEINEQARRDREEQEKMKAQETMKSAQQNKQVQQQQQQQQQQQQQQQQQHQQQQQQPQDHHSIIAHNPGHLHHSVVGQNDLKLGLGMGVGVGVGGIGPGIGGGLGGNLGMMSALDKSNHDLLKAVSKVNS

Results are given in words; binding and its absence hold for the method and conditions named. In cells and extracts the contact can be indirect. Some entries that bind do so weakly or less than the wild type. For some assays here: Sequences can lack the tags named with a protein.

Assay [1] has as its target VC-Ubx (Ultrabithorax fused to the C-terminal fragment of Venus) (Drosophila (D. melanogaster)) (UniProt P83949). Kind of assay: split reporter; Venus-based BiFC in live Drosophila embryos; VC-Ubx and VN-Twi expressed with Ubx-Gal4, twi-Gal4 or the split-Gal4 system (Ubx-Gal4AD/twi-Gal4DBD); epidermis, somatic mesoderm and midgut visceral mesoderm.
For assay [2], the target named is Ultrabithorax (Ubx), bait of the large-scale BiFC screen (Drosophila (D. melanogaster)) (UniProt P83949). The assay can be described thus: split reporter; large-scale BiFC screen of 260 TFs (VN or CC fusions) with Ubx and AbdA in live Drosophila embryos; Ubx-Gal4 or abdA-Gal4 driver, epidermis of stage 10 embryos.
Assay [3] addresses AbdominalA (AbdA), bait of the large-scale BiFC screen (Drosophila (D. melanogaster)) (UniProt P29555). The assay is described as above.
For assay [4], the target named is VN-AbdA (AbdominalA fused to the N-terminal fragment of Venus) (Drosophila (D. melanogaster)), P29555. Kind of assay: split reporter; Venus- or Cerulean-based BiFC in live Drosophila embryos; ORF-CC with VN-AbdA or CN-AbdA; abdA-Gal4 driver (epidermis, stage 10/11) or 24B-Gal4 driver (somatic mesoderm, stage 14); confocal observation. Particulars: remark: other sources report otherwise.

In assay [5] the target is CN-AbdA (AbdominalA fused to the N-terminal fragment of Cerulean) (Drosophila (D. melanogaster)), P29555. Described as above. Conditions: remark: other sources report otherwise.

B1: VN-Twi (Twist fused to the N-terminal fragment of Venus) (protein, UniProt P10627 1-490)
chain: MMSARSVSPKVLLDISYKPTLPNIMELQNNVIKLIQVEQQAYMQSGYQLQHQQQHLHSHQHHQQHHQQQHAQYAPLPSEYAAYGITELEDTDYNIPSNEVLSTSSNQSAQSTSLELNNNNTSSNTNSSGNNPSGFDGQASSGSSWNEHGKRARSSGDYDCQTGGSLVMQPEHKKLIHQQQQQQQQHQQQIYVDYLPTTVDEVASAQSCPGVQSTCTSPQSHFDFPDEELPEHKAQVFLPLYNNQQQQSQQLQQQQPHQQSHAQMHFQNAYRQSFEGYEPANSLNGSAYSSSDRDDMEYARHNALSSVSDLNGGVMSPACLADDGSAGSLLDGSDAGGKAFRKPRRRLKRKPSKTEETDEFSNQRVMANVRERQRTQSLNDAFKSLQQIIPTLPSDKLSKIQTLKLATRYIDFLCRMLSSSDISLLKALEAQGSPSAYGSASSLLSAAANGAEADLKCLRKANGAPIIPPEKLSYLFGVWRMEGDAQHQKA
Consider B1, for which the binding entry in assay [1] is listed as “binds”.

B2: Spalt major (Salm), VN or CC fusion of the multicolor BiFC library (protein, UniProt P39770 1-1365)
chain: MKNHLSNVLCAMRSDFKDNHQETINKMIQFGTVKYGIVKQLKDRARSADKDIGSDQEENGGCSPLTTATTTASPSRSPEPEEEQPEEQSTSEQSIPEQSTPDHQLENDIKSEAKSEIEPVEDNNNRVAMTKPSSEEREPNASGSMPSSPVAEASAEEAATERTPEKEKEKDVEVDVEKPDEAPSSAVPSTEVTLPGGAGAPVTLEAIQNMQMAIAQFAAKTIANGSNGADNEAAMKQLAFLQQTLFNLQQQQLFQIQLIQQLQSQLALNQAKQEEDTEEDADQEQDQEQETDTYEEEERIADMELRQKAEARMAEAKARQHLINAGVPLRESSGSPAESLKRRREHDHESQPNRRPSLDNTHKADTAQDALAKLKEMENTPLPFGSDLASSIITNHDDLPEPNSLDLLQKRAQEVLDSASQGILANSMADDFAFGEKSGEGKGRNEPFFKHRCRYCGKVFGSDSALQIHIRSHTGERPFKCNVCGSRFTTKGNLKVHFQRHAQKFPHVPMNATPIPEHMDKFHPPLLDQMSPTDSSPNHSPAPPPLGSAPASFPPAFPGLQNLYRPPMEILKSLGAAAPHQYFPQELPTDLRKPSPQLDEDEPQVKNEPVEEKDQREEHEQEMAECSEPEPEPLPLEVRIKEERVEEQEQVKQEDHRIEPRRTPSPSSEHRSPHHHRHSHMGYPPVVQPIQPAALMHPQSSPGSQSHLDHLPTPGQLPPREDFFAERFPLNFTTAKMLSPEHHSPVRSPAGGALPPGVPPPPHHHPHHMARSPFFNPIKHEMAALLPRPHSNDNSWENFIEVSNTCETMKLKELMKNKKISDPNQCVVCDRVLSCKSALQMHYRTHTGERPFKCRICGRAFTTKGNLKTHMAVHKIRPPMRNFHQCPVCHKKYSNALVLQQHIRLHTGEPTDLTPEQIQAAEIRDPPPSMMPGHFMNPFAAAAFHFGALPGGPGGPPGPNHGAHNGALGSESSQGDMDDNMDCGEDYDDDVSSEHLSNSNLEQEGDRSRSGDDFKSLLFEQKLRIDATGVVNTNPVRPRSSASSHGHSVGSTSAPTSPSVHASSQVIKRSSSPARSEASQGALDLTPRAAPTSSSSSRSPLPKEKPVSPPSLPRSPSGSSHASANILTSPLPPTVGIDCLPPGLQHHLQQQHQHLMQQQAAVAAAAAAQHHHHQQMAALHQHQEQLRREAAEAQQKAAAAAAAAAAAAAAQRQTPPQARDQRQEGGPGAGPPPNPLMGARPPFGMFPNLPLFPPATTQNMCNAMNQIAQSVMPAAPFNPLALSGVRGSTTCGICYKTFPCHSALEIHYRSHTKERPFKCSICDRGFTTKGNLKQHMLTHKIRDMEQETFRNRAVKYMSEWNEDRE
Turning to B2, the binding result is “no binding” in assay [2] and “binds” in assay [3].

B3: Pangolin ORF-CC (Pan-CC), P91943 1-751 (protein)
chain: MPHTHSRHGSSGDDLCSTDEVKIFKDEGDREDEKISSENLLVEEKSSLIDLTESEEKGHKISRPDHSPVFNKLDTHAPSFNMGYLVSPYSYANGSPSGLPVTMANKIGLPPFFCHNADPLSTPPPAHCGIPPYQLDPKMGLTRPALYPFAGGQYPYPMLSSDMSQVASWHTPSVYSASSFRTPYPSSLPINTTLASDFPFRFSPSLLPSVHATSHHVINAHSAIVGVSSKQECGVQDPTTNNRYPRNLEAKHTSNAQSNESKETTNDKKKPHIKKPLNAFMLYMKEMRAKVVAECTLKESAAINQILGRRWHELSREEQSKYYEKARQERQLHMELYPGWSARDNYGYVSKKKKRKKDRSTTDSGGNNMKKCRARFGLDQQSQWCKPCRRKKKCIRYMEALNGNGPAEDGSCFDEHGSQLSDDDEDDYDDDKLGGSCGSADETNKIEDEDSESLNQSMPSPGCLSGLSSLQSPSTTMSLASPLNMNANSATNVIFPASSNALLIVGADQPTAQQRPTLVSTSGSSSGSTSSISTTPNTSSTVSPVTCMTGPCLGSSQERAMMLGNRFSHLGMGLSPPVVSTSTSKSEPFFKPHPTVCNNPIFALPSIGNCSLNISSMPNTSRNPIGANPRDINNPLSINQLTKRREYKNVELIEASESKTIVAHAATSIIQHVAVNGYHANHSLLNSNLGHLHHQLNNRTENPNRSEQTMLSVSNHSVNSSECHKESDSQAIVSSNPPNAGSSDNGVISVS
B3: the binding entry in assay [4] and in assay [5] was “no binding” in each case.
